{
  "source": "ChEMBL document CHEMBL4118181",
  "about": "“Investigations on small molecule inhibitors targeting the histone H3K4 tri-methyllysine binding PHD-finger of JmjC histone demethylases” (Bioorg Med Chem, 2018)",
  "target": "T1, Lysine-specific demethylase 7A (Homo sapiens) (UniProt Q6ZMT4)",
  "T1 sequence (whole entry)": "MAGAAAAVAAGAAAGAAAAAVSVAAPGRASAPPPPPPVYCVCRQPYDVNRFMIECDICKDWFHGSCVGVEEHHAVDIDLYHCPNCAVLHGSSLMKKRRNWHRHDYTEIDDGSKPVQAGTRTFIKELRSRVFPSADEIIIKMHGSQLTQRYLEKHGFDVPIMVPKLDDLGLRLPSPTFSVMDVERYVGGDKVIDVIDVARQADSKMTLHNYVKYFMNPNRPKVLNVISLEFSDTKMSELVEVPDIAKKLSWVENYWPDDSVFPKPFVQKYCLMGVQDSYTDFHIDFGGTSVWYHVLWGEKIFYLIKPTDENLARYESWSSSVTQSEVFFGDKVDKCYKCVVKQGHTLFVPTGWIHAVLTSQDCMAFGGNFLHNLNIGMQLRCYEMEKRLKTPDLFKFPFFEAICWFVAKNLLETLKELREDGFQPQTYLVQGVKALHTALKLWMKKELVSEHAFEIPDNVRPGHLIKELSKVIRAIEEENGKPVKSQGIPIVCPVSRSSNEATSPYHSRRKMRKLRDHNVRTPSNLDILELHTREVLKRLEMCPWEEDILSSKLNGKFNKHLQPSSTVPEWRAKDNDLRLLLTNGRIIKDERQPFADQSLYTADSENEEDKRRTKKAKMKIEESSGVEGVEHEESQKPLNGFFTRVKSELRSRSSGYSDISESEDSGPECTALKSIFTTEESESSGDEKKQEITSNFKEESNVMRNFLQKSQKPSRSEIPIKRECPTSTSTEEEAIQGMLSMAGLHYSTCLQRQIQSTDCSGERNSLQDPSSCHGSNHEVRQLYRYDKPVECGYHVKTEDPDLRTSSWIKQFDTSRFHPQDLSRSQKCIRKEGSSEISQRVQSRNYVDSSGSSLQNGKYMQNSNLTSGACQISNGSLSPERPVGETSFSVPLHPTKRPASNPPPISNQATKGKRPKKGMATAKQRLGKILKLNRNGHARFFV",
  "assay": "Inhibition of KDM7A (PHD-JmjC) (unknown origin) demethylation activity at 100 uM preincubated for 10 mins followed by H3(1-15)K9me2 peptide substrate addition by MALDI-TOF-MS analysis",
  "data": [
    {"smiles": "CCCCc1oc2ccccc2c1C(=O)c1cc(I)c(OCCN(CC)CC)c(I)c1", "values": [
      {"measurement": "inhibition", "value": 83, "unit": "%"}
    ]}
  ]
}
